Drawing on patent publication US20160002355A1, this text covers binding for 2 molecules.

Results are given in words; binding and its absence hold for the method and conditions named. Some binding calls cover weakened binding; strength is not graded here.

The target of assay [1] is anti-Complex I antibody (anti-HCMV antibody). Nature of the assay: anti-CI clinical PK ELISA: anti-ID coated on the plate captures anti-CI from spiked human serum, detection with HRP-mouse anti-huIgG Fc gamma; readout % recovery.
The target is the same in assay [2]. Nature of the assay: preliminary HCMV PK ELISA, anti-ID as plate coat, polyclonal anti-human detection. For orientation: An ELISA detects its analyte on a solid surface through an enzyme-linked reagent.
For assay [3] the target is unchanged. Nature of the assay: sandwich ELISA: anti-ID coated at 1 ug/mL, anti-HCMV antibody in assay diluent/1% normal human serum, detection with HRP-sheep anti-huIgG; readout S/N ratio.

B1: murine mAb 4.25B10.15 (antibody, IgG1, V domains shown)
VH: QVQLQQSGAELVRPGTSVKVSCKASGYAFTNYLIEWVKQRPGQGLEWIGVINPGSGGTNYNEKFEAKATLTADKSSSTAYMQLSSLTSDDSAVYFCARHGSSYWYFDVWGAGTTVTVSS
VL: DIVMTQSPATLSVTPGDRVSLSCRASQSISDYLHWYQQKSHESPRLLIKYASQSISGIPSRFSGSGSGSDFTLSINSVEPEDVGVYYCQNGHSFPYTFGGGTKLEIK
In the case of B1, the binding entry in assay [1] and in assay [2] was “binds” each time.

B2: murine mAb 1.9E1.1 (antibody, IgG1, V domains shown)
VH: QVQLQQSGAELVMPGASVKMSCKASGYTFTDYWMYWVNQRPGQGLEWIGAIDTSDSYTTYNQNFKGKATLTVDESSSTAYMQLNSLTSEDSAVYYCARSGFPLFYYPMDYWGQGTSVTVSS
VL: QAVVTQESALTTSPGETVTLTCRSSTGAVTTSNYANWVQEKPDHLFTGLIGGTVNRAPGVPARFSGSLIGDKAALTITGAQTEDEAVYFCALWYSNHLVFGGGTKLTVL
Take B2: the binding entry in assay [3] is recorded as “no binding (tested: 50 ng/ml in well)”.
